Data from article PMC6679068.

T1: HIS-GFP-tagged full-length CpnA (copine A) (Dictyostelium discoideum) (UniProt Q7YXU4)
T1 sequence: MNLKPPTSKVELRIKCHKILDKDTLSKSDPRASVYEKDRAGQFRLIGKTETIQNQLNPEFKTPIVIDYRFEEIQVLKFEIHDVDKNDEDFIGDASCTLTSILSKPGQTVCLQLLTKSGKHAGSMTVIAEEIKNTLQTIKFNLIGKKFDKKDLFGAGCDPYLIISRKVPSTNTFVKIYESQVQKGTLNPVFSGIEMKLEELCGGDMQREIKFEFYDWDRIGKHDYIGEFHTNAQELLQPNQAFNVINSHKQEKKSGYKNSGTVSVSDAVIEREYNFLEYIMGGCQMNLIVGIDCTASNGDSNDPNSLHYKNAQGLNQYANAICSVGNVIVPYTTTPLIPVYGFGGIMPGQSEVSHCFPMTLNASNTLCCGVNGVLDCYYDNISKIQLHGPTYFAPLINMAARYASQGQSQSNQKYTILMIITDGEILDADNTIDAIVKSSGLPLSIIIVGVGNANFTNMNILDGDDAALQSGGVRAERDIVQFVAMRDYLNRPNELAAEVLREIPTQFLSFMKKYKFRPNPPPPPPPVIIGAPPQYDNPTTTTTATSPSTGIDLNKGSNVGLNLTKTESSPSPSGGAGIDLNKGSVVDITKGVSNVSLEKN

B1: Acetylornithine deacetylase (enzyme, UniProt P54638 1-447)
chain: MTKPVASYELDEKRFLTLLGKLIGETENLQNRPPALIPIEDNAGRHVIEALTPYLKANGGVLELEQVHCDPVNYPKRGNIIIEYPGTSKGTSSPKTISFVGSHLDVVPADKTAWDRNPFQLIIEGDKLYGRGTTDCLGHVALLTDLFIQLATEKPALKHSIFAVFIVSEENDEIPGIGVDALDHSGKMNPCKNGPVYWVDSADSQPTIGTGGAQTWNLTAHGKNMHSAMPYRTVNSVELVNEALAEIQRRFYIDFKPHPKEAEYKFDCSSTMKPTLWKPIAGSYNTIPGESTICGDIRLTPFYDMKEMRAKVEGYIKDINANITELRNRGPYSKYDVPASEGVEPVKGSVSIEWLGEASAGVACKLDSDGYKALGKATSEILGSLTPVATCGTLPLVRDLQDSGFDIQITGFGKEETYHADNEYALLSDFKNAIKILSRTIDLLEKN
B2: S-adenosyl-L-homocysteine hydrolase (enzyme, UniProt P10819 1-431)
chain: MTKLHYKVKDISLAAWGRKEIEIAENEMPGLMTLRKKYGPAQILKGARIAGCLHMTIQTAVLIETLTALGAQVQWSSCNIFSTQDQAAAAIAATGVPVYAWKGETEEEYNWCVEQTIVFQDGQPLNMILDDGGDLTNLVHEKYPQFLAGIKGISEETTTGVHNLYKMFKEGKLKVPAINVNDSVTKSKFDNLYGCRESLIDGIKRATDVMIAGKVAVVAGYGDVGKGCAQSLSKMGARVLVTEIDPINALQACMDGYQIVTMETAAPLSNIFVTTTGCRDIVRGEHFAVMKEDAIVCNIGHFDCEIDVAWLNANAKKDTVKPQVDRYTLANGVHIILLAEGRLVNLGCGTGHPSFVMSNSFCNQTLAQIALWTKTEEYPLGVHFLPKILDEEVARLHLDQLGAKLTTLTEKQSEYLSVPVAGPYKVDHYRY
B3: discoidin II (protein, UniProt P42530 1-257)
chain: MSVPAGSVSCLANALLNLRSSTDYNADHGVKNSILNFSNSKDASRFDGSESWSSSVLDKNQFIVAGSDSVKHFVAISTQGRGDHDQWVTSYKLRYTLDNVNWVEYNNGEIINANKDRNSIVTINFNPPIKARSIAIHPQTYNNHISLRWELYALPVKSYSNPSVQVGEVSIGDRSLNSGTGSRTIVRHVKFPVEFLSVPIVSIGCKKVDAHTDNGQMRWEGKSENITTKGFDLTFITWGNNAVYDLTFDYVAVEFNN

Biological target: T1, HIS-GFP-tagged full-length CpnA (copine A) (Dictyostelium discoideum)
Assay: affinity purification with mass spectrometry; purified GFP-CpnA covalently coupled to agarose beads (Aminolink Plus) in a column; soluble proteins of NC4A2 lysate with 10 mM CaCl2, pH 7.4 applied; washed in homogenization buffer with 2 mM CaCl2; eluted with 0.2 M glycine pH 2.5; control column with beads only; bands from SDS-PAGE identified by MALDI MS; only the target purified

Molecule	binding
discoidin I	binds
B1	binds
B2	binds
B3	binds

No constants are given. Whether binding was seen depends on the method and setting. In cells and extracts the contact can be indirect. These calls come from enrichment with a bait or labelling near it, and not all partners need be listed. Tags and fused reporters may be left off the sequences shown.
